# Results from doi:10.1101/2020.06.04.133876.
# Chains of the proteins cited; added tags and fusions are not shown.
# UniProt P60953: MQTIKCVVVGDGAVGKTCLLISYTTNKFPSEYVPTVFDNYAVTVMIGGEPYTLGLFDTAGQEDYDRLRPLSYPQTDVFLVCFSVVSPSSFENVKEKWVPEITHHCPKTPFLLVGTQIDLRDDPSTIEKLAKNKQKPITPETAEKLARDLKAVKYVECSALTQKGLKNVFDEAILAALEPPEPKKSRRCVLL
# UniProt P61586: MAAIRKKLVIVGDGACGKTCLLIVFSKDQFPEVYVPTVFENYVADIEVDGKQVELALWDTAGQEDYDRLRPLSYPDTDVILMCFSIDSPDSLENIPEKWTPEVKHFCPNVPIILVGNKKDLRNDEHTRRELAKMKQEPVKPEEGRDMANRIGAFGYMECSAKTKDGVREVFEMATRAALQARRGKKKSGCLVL
# No constants are given. Whether binding was seen depends on the method and setting. In cells and extracts the contact can be indirect. Some entries that bind do so weakly or less than the wild type.
# Key:
# [1] = target: OtDUB_(1-675), Flag-tagged, expressed in HeLa cells (Orientia tsutsugamushi (Ikeda isolate)) (UniProt B3CVM3); assay: co-IP
# [2] = target: full-length (FL) OtDUB, Flag-tagged, expressed in HeLa cells (Orientia tsutsugamushi (Ikeda isolate)) (UniProt B3CVM3); assay: co-IP
Substance,binding [1],binding [2]
"Cdc42 (endogenous, HeLa) (from UniProt P60953 1-191)",no binding,binds
"RhoA (endogenous, HeLa) (from UniProt P61586 1-193)",,no binding
